Laboratory results published in paper PMC9592052.
These are yes or no findings as the source states them, for the method shown. Some binding calls cover weakened binding; strength is not graded here. Where a sequence is shown, tags or fusion partners need not be part of it.

By UniProt entry, the sequences of proteins in these tests, tags left out.
UniProt Q02088: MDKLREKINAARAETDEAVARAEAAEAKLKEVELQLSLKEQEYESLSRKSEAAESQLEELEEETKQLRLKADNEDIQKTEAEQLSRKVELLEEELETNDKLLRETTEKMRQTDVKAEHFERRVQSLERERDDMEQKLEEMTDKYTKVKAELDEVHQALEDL

Biological target: S. pombe tropomyosin Cdc8 (S. pombe (endogenous in S. pombe cells)) (UniProt Q02088)
Assay: live-cell fluorescence imaging of the expressed nanobody-mNG fusion; Nb5–mNG expressed in S. pombe cells and imaged by spinning disk confocal microscopy at 25°C; Cdc8-containing patches, cables, CAR and fusion focus were decorated

B1: Nanobody 5 fused to mNG (Nb5–mNG) (VHH)
VHH: EVQLQASGGGFVQPGGSLRLSCAASGRTYEQSAMGWFRQAPGKEREFVSAISRNSGQWQYYADSVKGRFTISRDNSKNTVYLQMNSLRAEDTATYYCARAFDVLIKGATYSREYWGQGTQVTVSS
For B1, the binding was “binds”.
